Reference: patent US9186421B2, “Establishment of rhesus monkey model of autoimmunity type 1 diabetes” (West China Hospital, Sichuan University, priority 2010, dated 2015)
For at least one compound, name, drawing or mass did not settle the structure.

How the values were obtained:
rhesus monkeys [1] = assay: Diabetes model prepared by low dose STZ induction; assay type: in vivo, rhesus monkey
Method: Low dose of STZ was administered intravenously for 5 consecutive days, at a dose of 15-30 mg/kg per time; and administrated again on the 7th day and 14th day after last administration. Fasting glucose was observed once each week.
6 rhesus monkeys were used to prepare models according to the method of the present invention and 4 models were successfully prepared. […]

rhesus monkeys [2] = details: STZ i.v. 30, 45 or 60 mg/kg, seven monkeys; cited from earlier work
rhesus monkeys [3] = details: within five days after injection, STZ i.v. 45 to 55 mg/kg, 22 monkeys; cited from earlier work

## CN(N=O)C(=O)N[C@@H](C=O)[C@@H](O)[C@H](O)[C@H](O)CO [STZ, Streptozotocin]
Rhesus monkeys [1]; FIG. 2C
  anti-CD3 monoclonal antibody immunohistochemical staining of pancreas: mainly T-cell infiltration
Rhesus monkeys [1]; HE staining, FIG. 2B
  pancreatic tissue biopsy finding: lymphocytic infiltration around the islet
Rhesus monkeys [1]; immunohistochemistry, FIG. 1C, 1D
  serum anti-islet cell antibodies: positive
Rhesus monkeys [1]; immunohistochemistry, FIG. 3A
  insulin expression-positive cells remaining in the islet tissue: only a very small amount
Rhesus monkeys [1]; serum, enzyme-linked immunosorbent assay
  anti-insulin antibodies: positive
Rhesus monkeys [2]
  plasma glucose and glycosuria: increased
Rhesus monkeys [3]
  monkeys that developed insulin-dependent diabetes: Almost half
